Reference: publication PMC4808006

Key:
[1] = biological target: Flag-tagged ΔPDZ2-Syntenin (human); assay: co-IP; transient transfection of tagged plasmids in H1299 cells; lysates immunoprecipitated with anti-Flag antibodies, Western blotting
[2] = biological target: Syntenin-ΔPDZ1 (GST fusion protein) (human); assay: pull-down; purified GST-Syntenin fusion proteins incubated with in vitro translated HA-tagged Slug, pulled down by glutathione beads, immunoblotting; only the target purified

binding [1] | binding [2] | Binder
binds |  | HA-Slug (protein, UniProt O43623 1-268) MPRSFLVKKHFNASKKPNYSELDTHTVIISPYLYESYSMPVIPQPEILSSGAYSPITVWTTAAPFHAQLPNGLSPLSGYSSSLGRVSPPPPSDTSSKDHSGSESPISDEEERLQSKLSDPHAIEAEKFQCNLCNKTYSTFSGLAKHKQLHCDAQSRKSFSCKYCDKEYVSLGALKMHIRTHTLPCVCKICGKAFSRPWLLQGHIRTHTGEKPFSCPHCNRAFADRSNLRAHLQTHSDVKKYQCKNCSKTFSRMSLLHKHEESGCCVAH
 | no binding | HA-tagged Slug, in vitro translated (protein, UniProt O43623 1-268) MPRSFLVKKHFNASKKPNYSELDTHTVIISPYLYESYSMPVIPQPEILSSGAYSPITVWTTAAPFHAQLPNGLSPLSGYSSSLGRVSPPPPSDTSSKDHSGSESPISDEEERLQSKLSDPHAIEAEKFQCNLCNKTYSTFSGLAKHKQLHCDAQSRKSFSCKYCDKEYVSLGALKMHIRTHTLPCVCKICGKAFSRPWLLQGHIRTHTGEKPFSCPHCNRAFADRSNLRAHLQTHSDVKKYQCKNCSKTFSRMSLLHKHEESGCCVAH

These are yes or no findings as the source states them, for the method shown. Binding seen in cells or lysates may run through a third protein. For some assays here: Binding calls can cover weak binding; strength is not graded here. Where a sequence is shown, tags or fusion partners need not be part of it.
